# Measurements from patent US20040170955A1 (University of Texas, published 2004).
# By UniProt entry, the sequences of proteins in these tests, tags left out. Residues count along the entry.
# UniProt P18084, residues 743-799: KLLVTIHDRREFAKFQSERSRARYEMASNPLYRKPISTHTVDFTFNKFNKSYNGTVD
# UniProt P08758, residues 2-320: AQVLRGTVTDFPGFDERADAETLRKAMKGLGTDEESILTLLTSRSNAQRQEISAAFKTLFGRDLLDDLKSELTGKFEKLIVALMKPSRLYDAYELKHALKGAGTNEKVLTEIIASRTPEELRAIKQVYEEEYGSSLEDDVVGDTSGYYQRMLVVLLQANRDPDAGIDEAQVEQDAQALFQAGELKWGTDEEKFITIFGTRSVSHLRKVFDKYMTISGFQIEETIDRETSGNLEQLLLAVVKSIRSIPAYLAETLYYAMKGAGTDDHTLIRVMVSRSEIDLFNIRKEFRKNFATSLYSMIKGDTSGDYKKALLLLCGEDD
# No constants are given. Whether binding was seen depends on the method and setting. Some binding calls cover weakened binding; strength is not graded here.
# How the values were obtained:
# [1] = target: GST-β5cyto (GST fusion protein of the β5 integrin cytoplasmic domain) (UniProt P18084); assay: ELISA, GST-β5 coated; low binding in TBS, high binding in cytoplasmic buffer with or without 2 mM calcium
# Annexin V = Annexin V (UniProt P08758); assay: ELISA, Annexin V coated, GST fusion added, anti-GST fusion protein antibodies (not shown)
binding [1],binding (Annexin V),Substance
binds,–,Annexin V (from UniProt P08758 2-320)
–,binds,GST-β5cyto (GST fusion protein of the β5 integrin cytoplasmic domain) (from UniProt P18084 743-799)
